Assay results reported in publication PMC12721901.
These are yes or no findings as the source states them, for the method shown. In cells and extracts the contact can be indirect. Some binding calls cover weakened binding; strength is not graded here. For some assays here: Tags and fused reporters may be left off the sequences shown. One block for each molecule: values may come before it.

By UniProt entry, the sequences of proteins in these tests, tags left out.
UniProt Q15910: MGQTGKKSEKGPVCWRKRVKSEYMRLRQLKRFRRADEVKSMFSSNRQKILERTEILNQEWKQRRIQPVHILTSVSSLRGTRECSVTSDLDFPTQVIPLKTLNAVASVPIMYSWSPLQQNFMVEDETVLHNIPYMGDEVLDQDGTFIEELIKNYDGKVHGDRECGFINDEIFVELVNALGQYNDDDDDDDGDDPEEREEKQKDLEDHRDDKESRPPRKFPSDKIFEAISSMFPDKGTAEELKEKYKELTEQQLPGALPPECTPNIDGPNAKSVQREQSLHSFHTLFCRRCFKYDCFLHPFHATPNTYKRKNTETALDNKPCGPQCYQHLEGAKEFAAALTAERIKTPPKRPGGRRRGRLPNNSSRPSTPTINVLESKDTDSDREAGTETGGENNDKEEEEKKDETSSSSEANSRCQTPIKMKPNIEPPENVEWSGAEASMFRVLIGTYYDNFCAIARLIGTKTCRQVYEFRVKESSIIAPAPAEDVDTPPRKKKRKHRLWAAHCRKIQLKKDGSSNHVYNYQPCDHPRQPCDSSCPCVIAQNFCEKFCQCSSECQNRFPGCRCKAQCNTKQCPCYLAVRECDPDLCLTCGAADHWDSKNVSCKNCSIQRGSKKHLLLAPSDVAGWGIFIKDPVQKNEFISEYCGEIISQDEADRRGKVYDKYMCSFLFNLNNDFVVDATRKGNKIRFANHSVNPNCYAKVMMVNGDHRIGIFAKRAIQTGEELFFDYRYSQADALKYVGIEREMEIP
UniProt Q61188: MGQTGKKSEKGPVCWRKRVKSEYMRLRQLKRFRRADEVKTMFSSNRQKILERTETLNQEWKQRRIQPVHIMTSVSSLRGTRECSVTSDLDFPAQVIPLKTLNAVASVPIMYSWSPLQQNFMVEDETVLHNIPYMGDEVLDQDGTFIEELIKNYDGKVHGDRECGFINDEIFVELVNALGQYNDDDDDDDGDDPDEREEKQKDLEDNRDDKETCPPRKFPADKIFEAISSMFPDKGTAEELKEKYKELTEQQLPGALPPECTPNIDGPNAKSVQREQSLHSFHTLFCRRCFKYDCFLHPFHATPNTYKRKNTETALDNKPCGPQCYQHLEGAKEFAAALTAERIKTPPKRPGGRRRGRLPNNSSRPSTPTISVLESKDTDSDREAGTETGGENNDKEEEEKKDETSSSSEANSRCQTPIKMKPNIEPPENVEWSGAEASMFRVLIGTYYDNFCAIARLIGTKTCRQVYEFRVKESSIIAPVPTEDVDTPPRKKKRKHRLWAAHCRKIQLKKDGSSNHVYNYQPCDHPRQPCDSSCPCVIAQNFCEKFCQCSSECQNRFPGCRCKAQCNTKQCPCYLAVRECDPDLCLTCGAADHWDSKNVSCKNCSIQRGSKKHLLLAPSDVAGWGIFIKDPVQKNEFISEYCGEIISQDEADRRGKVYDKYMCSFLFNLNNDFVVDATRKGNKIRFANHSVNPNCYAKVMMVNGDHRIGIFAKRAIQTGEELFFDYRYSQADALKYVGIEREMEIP

Legend:
GST-USP22 = target: T1, GST-USP22 (UniProt Q9UPT9); assay: pull-down; recombinant GST or GST-USP22 purified from bacteria, incubated with 4T1 cell lysate overnight; bound proteins by immunoblot; only the target purified
T1 sequence: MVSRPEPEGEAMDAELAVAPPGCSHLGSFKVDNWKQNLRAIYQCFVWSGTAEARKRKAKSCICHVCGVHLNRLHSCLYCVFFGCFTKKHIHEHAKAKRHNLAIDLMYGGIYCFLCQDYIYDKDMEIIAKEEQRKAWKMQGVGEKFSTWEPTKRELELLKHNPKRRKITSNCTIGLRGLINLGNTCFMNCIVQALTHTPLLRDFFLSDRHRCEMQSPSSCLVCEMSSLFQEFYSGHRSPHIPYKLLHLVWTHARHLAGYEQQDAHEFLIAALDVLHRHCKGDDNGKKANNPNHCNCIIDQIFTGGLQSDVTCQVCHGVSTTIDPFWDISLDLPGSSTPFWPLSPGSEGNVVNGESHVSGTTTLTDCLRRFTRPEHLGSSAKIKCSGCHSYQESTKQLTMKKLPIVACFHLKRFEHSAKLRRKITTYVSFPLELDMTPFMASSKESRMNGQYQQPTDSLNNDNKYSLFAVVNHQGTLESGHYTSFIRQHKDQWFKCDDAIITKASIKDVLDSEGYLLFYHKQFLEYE

[1] = target: T2, USP22 (endogenous, mouse tumor cells) (mouse (endogenous in RM1 and MC38)) (UniProt Q5DU02); assay: co-IP; endogenous proteins; anti-EZH2 and, reciprocally, anti-USP22 immunoprecipitates from lysates of RM1 and MC38 cells, immunoblot
T2 sequence: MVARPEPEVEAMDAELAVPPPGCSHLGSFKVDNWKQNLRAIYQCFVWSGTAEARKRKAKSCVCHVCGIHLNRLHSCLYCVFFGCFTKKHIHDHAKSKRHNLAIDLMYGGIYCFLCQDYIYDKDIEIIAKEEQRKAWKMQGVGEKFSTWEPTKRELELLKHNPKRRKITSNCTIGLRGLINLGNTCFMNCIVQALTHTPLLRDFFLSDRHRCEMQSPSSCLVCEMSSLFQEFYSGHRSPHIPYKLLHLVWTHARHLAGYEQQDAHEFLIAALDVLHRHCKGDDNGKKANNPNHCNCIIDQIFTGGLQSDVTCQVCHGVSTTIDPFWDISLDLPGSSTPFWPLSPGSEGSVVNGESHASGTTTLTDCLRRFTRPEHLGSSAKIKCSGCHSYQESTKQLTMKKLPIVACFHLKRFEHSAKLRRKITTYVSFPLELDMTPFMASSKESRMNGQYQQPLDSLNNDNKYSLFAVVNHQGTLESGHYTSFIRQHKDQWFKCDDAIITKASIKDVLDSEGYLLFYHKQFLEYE

Flag-tagged EZH2 = Flag-tagged EZH2 (UniProt Q15910); assay: co-IP; transiently transfected HEK-293T cells (Myc-USP22 or its mutants with FLAG-EZH2), immunoblot
[2] = target: EZH2 (endogenous, mouse tumor cells) (mouse (endogenous in RM1, MC38 and 4T1)) (UniProt Q61188); assay: co-IP; endogenous proteins; anti-EZH2 and, reciprocally, anti-USP22 immunoprecipitates from lysates of RM1 and MC38 cells, immunoblot

- binding (GST-USP22): binds
- binding [1]: binds
Molecule: EZH2 (endogenous, mouse tumor cells) (from UniProt Q61188 1-746) (enzyme)

- binding (Flag-tagged EZH2): binds
B1: Myc-tagged USP22 (enzyme, UniProt Q9UPT9 1-525)
chain: MVSRPEPEGEAMDAELAVAPPGCSHLGSFKVDNWKQNLRAIYQCFVWSGTAEARKRKAKSCICHVCGVHLNRLHSCLYCVFFGCFTKKHIHEHAKAKRHNLAIDLMYGGIYCFLCQDYIYDKDMEIIAKEEQRKAWKMQGVGEKFSTWEPTKRELELLKHNPKRRKITSNCTIGLRGLINLGNTCFMNCIVQALTHTPLLRDFFLSDRHRCEMQSPSSCLVCEMSSLFQEFYSGHRSPHIPYKLLHLVWTHARHLAGYEQQDAHEFLIAALDVLHRHCKGDDNGKKANNPNHCNCIIDQIFTGGLQSDVTCQVCHGVSTTIDPFWDISLDLPGSSTPFWPLSPGSEGNVVNGESHVSGTTTLTDCLRRFTRPEHLGSSAKIKCSGCHSYQESTKQLTMKKLPIVACFHLKRFEHSAKLRRKITTYVSFPLELDMTPFMASSKESRMNGQYQQPTDSLNNDNKYSLFAVVNHQGTLESGHYTSFIRQHKDQWFKCDDAIITKASIKDVLDSEGYLLFYHKQFLEYE

- binding (Flag-tagged EZH2): binds
B2: Myc-USP22 C185A (catalytically inactive) (enzyme, UniProt Q9UPT9 1-525)
chain: MVSRPEPEGEAMDAELAVAPPGCSHLGSFKVDNWKQNLRAIYQCFVWSGTAEARKRKAKSCICHVCGVHLNRLHSCLYCVFFGCFTKKHIHEHAKAKRHNLAIDLMYGGIYCFLCQDYIYDKDMEIIAKEEQRKAWKMQGVGEKFSTWEPTKRELELLKHNPKRRKITSNCTIGLRGLINLGNTAFMNCIVQALTHTPLLRDFFLSDRHRCEMQSPSSCLVCEMSSLFQEFYSGHRSPHIPYKLLHLVWTHARHLAGYEQQDAHEFLIAALDVLHRHCKGDDNGKKANNPNHCNCIIDQIFTGGLQSDVTCQVCHGVSTTIDPFWDISLDLPGSSTPFWPLSPGSEGNVVNGESHVSGTTTLTDCLRRFTRPEHLGSSAKIKCSGCHSYQESTKQLTMKKLPIVACFHLKRFEHSAKLRRKITTYVSFPLELDMTPFMASSKESRMNGQYQQPTDSLNNDNKYSLFAVVNHQGTLESGHYTSFIRQHKDQWFKCDDAIITKASIKDVLDSEGYLLFYHKQFLEYE

- binding [2]: binds
B3: USP22 (endogenous, mouse tumor cells) (enzyme, UniProt Q5DU02 1-525)
chain: MVARPEPEVEAMDAELAVPPPGCSHLGSFKVDNWKQNLRAIYQCFVWSGTAEARKRKAKSCVCHVCGIHLNRLHSCLYCVFFGCFTKKHIHDHAKSKRHNLAIDLMYGGIYCFLCQDYIYDKDIEIIAKEEQRKAWKMQGVGEKFSTWEPTKRELELLKHNPKRRKITSNCTIGLRGLINLGNTCFMNCIVQALTHTPLLRDFFLSDRHRCEMQSPSSCLVCEMSSLFQEFYSGHRSPHIPYKLLHLVWTHARHLAGYEQQDAHEFLIAALDVLHRHCKGDDNGKKANNPNHCNCIIDQIFTGGLQSDVTCQVCHGVSTTIDPFWDISLDLPGSSTPFWPLSPGSEGSVVNGESHASGTTTLTDCLRRFTRPEHLGSSAKIKCSGCHSYQESTKQLTMKKLPIVACFHLKRFEHSAKLRRKITTYVSFPLELDMTPFMASSKESRMNGQYQQPLDSLNNDNKYSLFAVVNHQGTLESGHYTSFIRQHKDQWFKCDDAIITKASIKDVLDSEGYLLFYHKQFLEYE
